Results from patent US20110021471A1, “REDUCING Abeta42 LEVELS AND Abeta AGGREGATION” (priority 2007, published 2011).
At least one compound was matched to its structure with a doubt left.

Test system: 7PA2 cells (CHO cells stably expressing human APP751 V717F)
Experiment: 7PA2 cells: Aβ oligomers (IP/western) and Aβ ELISA
Assay type: cell-based, Chinese hamster
Protocol: FIG. 17. γ-secretase modulators decrease the production of cell derived Aβ oligomers. CHO cells stably expressing human APP751 containing the familial Alzheimer's disease mutation V717F (referred to as 7PA2 cells) were incubated for ˜16 hours in the presence of GSMs. […] Aβ40 levels were decreased to varying degrees (26-35%; Li-Cor Odyssey). (B) and (C) Because the extended incubation times necessary to reliably detect Aβ oligomers in this assay can be toxic, we carried out additional dose response studies with fenofibrate and FT-9 to verify that decreases in Aβ oligomers levels were not related to toxicity or global inhibition of Aβ production. […] (C) Increasing doses of FT-9 reduced the detection of Aβ oligomeric bands and Aβ42 decreased preferentially with decreases in Aβ40 at higher doses. […] Aβ species present in conditioned medium were detected by IP using the polyclonal anti-Aβ antibody, DW6 and subsequent immunoblotting with either 6E10 or the 42-specific, anti-Aβ antibody 21F12. Aβ levels in the samples analyzed via IP/western were also quantified via sandwich ELISA. Data presented as percent vehicle control±s.e.m., n=2.
To address the question of whether GSMs influence the concentration of secreted amyloid-β oligomers, such as those released by Chinese hamster ovary (CHO) cells expressing the APP V717F mutation (referred to as 7PA2 cells), which alter long-term potentiation and perturb the memory of learned behavior when injected into rat brain, 7PA2 cells were treated with two Aβ42-raising GSMs and a novel Aβ42-lowering GSM (FIG. 17) (Walsh et al., Nature 416:535:539 (2002); Calabrese et al., Mol. Cell. Neurosci. 35:183-193 (2007)). Fenofibrate and FT-1 increased amounts of Aβ42 whereas FT-9 lowered Aβ42, but all three GSMs decreased amounts of amyloid-β dimers and trimers. […] In contrast to increased amyloid-β oligomer formation, when CHO cells are genetically manipulated to increase Aβ42 production by co-expression of APP and FAD-linked mutant PSEN1 proteins, both Aβ42-lowering and -raising GSMs decreased oligomer formation (Xia et al., J. Biol. Chem. 272: 7977-7982 (1997)).

[1] = FT-9 and FT-1 20 μM, fenofibrate 100 μM, ~16 hours

CC(C)OC(=O)C(C)(C)Oc1ccc(C(=O)c2ccc(Cl)cc2)cc1 [fenofibrate]
total Aβ (ELISA) in dose response studies: without decreases in Aβ40 or total Aβ | naturally secreted oligomer formation (50 μM, IP Western blotting): inhibit oligomer formation | Aβ42 production in 7PA2 cells [1]: increase production of Aβ42 | dimeric and trimeric Aβ species [1]: reduce production of dimeric and trimeric Aβ species
